Test in all cases: proximity labelling
The target of assay [1] is T1, γ1-COP-ultraID (γ1-COP subunit of coatomer with ultraID fused to its C-terminus) (UniProt Q9QZE5).
T1 sequence: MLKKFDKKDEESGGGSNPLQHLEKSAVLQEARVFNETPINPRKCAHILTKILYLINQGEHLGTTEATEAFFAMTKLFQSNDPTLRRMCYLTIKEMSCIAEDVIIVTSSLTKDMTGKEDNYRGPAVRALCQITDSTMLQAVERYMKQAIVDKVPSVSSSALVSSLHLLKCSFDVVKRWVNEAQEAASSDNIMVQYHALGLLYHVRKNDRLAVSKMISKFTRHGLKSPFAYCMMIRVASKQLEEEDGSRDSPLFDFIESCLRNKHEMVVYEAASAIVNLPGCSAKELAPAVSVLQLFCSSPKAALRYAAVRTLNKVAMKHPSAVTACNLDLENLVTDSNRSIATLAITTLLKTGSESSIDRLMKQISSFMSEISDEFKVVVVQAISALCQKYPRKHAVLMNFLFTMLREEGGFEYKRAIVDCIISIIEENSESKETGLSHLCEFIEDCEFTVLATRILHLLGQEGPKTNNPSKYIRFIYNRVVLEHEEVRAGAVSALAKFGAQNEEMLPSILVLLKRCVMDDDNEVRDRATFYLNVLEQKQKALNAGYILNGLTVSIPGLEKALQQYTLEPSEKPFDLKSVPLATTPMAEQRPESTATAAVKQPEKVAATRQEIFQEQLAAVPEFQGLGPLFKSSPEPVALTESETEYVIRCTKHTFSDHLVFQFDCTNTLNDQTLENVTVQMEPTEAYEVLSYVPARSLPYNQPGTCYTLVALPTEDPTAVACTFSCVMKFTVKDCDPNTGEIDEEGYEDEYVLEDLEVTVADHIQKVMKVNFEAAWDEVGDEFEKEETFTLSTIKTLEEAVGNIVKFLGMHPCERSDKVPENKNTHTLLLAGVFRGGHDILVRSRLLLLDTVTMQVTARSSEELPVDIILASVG

By UniProt entry, the sequences of proteins in these tests, tags left out.
UniProt Q9UKV8: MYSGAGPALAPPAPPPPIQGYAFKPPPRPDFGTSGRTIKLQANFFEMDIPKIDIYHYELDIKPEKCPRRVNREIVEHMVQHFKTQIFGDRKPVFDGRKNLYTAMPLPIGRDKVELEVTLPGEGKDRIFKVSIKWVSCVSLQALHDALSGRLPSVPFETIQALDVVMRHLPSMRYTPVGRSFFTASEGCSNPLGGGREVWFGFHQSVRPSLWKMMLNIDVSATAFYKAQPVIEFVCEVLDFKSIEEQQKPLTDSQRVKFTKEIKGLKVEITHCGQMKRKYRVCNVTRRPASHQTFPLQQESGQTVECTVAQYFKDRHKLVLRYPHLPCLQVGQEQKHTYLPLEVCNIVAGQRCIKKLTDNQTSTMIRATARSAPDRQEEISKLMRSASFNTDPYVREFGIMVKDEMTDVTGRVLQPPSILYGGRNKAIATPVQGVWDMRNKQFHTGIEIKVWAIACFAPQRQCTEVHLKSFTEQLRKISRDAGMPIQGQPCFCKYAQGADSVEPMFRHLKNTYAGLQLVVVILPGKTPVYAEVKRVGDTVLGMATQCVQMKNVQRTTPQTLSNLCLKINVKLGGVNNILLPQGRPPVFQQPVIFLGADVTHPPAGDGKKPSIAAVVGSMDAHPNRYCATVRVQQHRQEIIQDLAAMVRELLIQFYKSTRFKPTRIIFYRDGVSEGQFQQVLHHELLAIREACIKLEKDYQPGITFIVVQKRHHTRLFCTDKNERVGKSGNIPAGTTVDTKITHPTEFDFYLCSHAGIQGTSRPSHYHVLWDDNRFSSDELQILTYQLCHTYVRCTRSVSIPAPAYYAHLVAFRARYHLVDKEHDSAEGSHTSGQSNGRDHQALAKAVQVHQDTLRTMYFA
UniProt Q8IZH2: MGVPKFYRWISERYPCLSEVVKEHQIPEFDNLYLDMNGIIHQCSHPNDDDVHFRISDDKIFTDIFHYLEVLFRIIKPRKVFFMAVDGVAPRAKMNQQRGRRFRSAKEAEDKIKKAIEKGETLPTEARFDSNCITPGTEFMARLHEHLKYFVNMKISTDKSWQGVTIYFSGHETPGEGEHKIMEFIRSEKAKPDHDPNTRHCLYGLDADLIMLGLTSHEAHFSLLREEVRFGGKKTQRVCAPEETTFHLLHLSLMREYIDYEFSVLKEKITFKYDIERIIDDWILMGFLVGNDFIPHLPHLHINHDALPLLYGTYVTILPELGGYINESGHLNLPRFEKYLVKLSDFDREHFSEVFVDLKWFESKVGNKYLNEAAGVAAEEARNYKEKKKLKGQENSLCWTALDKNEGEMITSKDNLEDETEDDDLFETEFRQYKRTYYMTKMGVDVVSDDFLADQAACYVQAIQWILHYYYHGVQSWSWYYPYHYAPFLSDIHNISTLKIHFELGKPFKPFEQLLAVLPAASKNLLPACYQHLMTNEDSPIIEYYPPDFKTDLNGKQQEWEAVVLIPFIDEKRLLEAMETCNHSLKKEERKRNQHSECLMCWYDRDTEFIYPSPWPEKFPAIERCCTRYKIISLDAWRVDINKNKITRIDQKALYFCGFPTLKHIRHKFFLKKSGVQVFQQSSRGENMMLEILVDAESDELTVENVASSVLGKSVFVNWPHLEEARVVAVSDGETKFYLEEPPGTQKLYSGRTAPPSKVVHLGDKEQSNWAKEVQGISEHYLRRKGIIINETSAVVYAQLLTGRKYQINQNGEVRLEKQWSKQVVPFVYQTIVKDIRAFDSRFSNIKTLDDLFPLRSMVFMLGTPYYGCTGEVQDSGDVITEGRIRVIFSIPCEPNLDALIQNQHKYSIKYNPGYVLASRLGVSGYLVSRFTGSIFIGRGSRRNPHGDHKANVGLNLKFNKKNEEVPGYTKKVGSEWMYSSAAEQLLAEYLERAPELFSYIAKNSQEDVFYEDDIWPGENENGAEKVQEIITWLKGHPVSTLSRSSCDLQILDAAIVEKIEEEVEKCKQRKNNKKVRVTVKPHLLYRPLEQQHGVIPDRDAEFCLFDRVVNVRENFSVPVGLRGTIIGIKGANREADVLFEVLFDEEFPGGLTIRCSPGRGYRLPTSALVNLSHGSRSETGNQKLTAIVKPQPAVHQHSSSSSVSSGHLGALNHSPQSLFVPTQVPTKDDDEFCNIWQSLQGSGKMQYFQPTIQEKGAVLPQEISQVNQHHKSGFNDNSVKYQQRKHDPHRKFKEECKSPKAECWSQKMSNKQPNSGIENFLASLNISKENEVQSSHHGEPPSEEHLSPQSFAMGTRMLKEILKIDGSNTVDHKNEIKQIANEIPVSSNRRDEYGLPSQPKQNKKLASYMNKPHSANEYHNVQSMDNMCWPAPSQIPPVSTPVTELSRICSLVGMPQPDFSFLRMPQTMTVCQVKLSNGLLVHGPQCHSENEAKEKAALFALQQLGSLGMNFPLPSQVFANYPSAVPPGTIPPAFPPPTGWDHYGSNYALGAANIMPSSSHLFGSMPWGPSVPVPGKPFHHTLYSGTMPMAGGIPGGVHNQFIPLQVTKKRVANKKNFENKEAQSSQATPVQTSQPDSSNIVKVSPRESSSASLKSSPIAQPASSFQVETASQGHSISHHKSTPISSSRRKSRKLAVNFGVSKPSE
UniProt Q91VW5: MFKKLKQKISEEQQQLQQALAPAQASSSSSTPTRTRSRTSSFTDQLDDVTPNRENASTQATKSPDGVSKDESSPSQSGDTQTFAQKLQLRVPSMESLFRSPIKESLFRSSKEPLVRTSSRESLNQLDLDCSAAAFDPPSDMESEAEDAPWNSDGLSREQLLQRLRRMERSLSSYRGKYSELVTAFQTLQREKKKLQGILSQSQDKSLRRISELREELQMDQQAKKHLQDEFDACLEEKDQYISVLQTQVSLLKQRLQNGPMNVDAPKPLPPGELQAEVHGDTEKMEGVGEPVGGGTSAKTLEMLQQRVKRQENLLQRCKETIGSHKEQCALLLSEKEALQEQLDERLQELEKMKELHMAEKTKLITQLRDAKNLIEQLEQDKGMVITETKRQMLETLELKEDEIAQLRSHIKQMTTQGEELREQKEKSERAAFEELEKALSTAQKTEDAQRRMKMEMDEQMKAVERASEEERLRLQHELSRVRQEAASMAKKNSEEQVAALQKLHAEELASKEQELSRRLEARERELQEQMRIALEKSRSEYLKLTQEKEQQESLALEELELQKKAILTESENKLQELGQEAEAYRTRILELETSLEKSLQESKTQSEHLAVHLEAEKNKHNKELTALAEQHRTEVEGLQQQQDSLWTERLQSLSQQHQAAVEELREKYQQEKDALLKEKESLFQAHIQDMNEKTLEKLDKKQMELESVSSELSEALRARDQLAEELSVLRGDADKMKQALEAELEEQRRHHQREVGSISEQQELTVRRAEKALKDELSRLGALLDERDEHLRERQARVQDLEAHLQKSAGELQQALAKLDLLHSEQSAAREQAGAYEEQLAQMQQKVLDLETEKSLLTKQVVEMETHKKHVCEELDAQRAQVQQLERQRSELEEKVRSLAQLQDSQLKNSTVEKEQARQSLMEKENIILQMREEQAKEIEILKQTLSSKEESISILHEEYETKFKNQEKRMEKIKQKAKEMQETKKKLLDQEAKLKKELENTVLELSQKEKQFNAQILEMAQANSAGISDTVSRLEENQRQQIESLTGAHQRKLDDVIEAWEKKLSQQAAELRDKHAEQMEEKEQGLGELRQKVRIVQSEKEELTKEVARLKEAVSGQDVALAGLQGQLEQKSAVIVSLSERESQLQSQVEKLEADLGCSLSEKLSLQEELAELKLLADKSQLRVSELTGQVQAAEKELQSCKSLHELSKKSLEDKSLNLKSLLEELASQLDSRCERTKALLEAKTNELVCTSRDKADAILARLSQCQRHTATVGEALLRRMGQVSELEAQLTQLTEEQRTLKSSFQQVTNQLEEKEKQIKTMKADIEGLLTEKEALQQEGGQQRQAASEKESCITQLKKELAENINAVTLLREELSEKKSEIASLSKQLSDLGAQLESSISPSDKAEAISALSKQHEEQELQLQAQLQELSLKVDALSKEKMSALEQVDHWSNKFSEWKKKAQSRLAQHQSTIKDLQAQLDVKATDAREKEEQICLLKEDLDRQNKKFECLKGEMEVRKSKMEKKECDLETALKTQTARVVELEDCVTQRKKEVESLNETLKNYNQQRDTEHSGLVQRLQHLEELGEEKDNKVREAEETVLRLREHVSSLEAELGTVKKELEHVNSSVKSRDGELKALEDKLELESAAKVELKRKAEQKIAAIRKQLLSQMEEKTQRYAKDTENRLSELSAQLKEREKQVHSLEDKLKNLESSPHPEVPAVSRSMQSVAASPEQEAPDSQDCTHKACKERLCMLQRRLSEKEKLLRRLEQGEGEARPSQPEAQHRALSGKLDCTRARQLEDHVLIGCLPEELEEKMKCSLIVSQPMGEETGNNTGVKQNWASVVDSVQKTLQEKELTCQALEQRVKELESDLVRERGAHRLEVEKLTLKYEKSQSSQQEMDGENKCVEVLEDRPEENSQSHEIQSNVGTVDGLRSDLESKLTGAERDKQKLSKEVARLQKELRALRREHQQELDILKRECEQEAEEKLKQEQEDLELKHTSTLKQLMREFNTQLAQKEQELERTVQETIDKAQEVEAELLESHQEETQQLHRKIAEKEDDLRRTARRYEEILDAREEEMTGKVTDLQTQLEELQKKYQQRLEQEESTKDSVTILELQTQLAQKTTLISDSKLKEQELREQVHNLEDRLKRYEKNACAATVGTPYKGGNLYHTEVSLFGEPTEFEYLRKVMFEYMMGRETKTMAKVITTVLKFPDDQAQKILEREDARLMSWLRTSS
UniProt Q8CHG3: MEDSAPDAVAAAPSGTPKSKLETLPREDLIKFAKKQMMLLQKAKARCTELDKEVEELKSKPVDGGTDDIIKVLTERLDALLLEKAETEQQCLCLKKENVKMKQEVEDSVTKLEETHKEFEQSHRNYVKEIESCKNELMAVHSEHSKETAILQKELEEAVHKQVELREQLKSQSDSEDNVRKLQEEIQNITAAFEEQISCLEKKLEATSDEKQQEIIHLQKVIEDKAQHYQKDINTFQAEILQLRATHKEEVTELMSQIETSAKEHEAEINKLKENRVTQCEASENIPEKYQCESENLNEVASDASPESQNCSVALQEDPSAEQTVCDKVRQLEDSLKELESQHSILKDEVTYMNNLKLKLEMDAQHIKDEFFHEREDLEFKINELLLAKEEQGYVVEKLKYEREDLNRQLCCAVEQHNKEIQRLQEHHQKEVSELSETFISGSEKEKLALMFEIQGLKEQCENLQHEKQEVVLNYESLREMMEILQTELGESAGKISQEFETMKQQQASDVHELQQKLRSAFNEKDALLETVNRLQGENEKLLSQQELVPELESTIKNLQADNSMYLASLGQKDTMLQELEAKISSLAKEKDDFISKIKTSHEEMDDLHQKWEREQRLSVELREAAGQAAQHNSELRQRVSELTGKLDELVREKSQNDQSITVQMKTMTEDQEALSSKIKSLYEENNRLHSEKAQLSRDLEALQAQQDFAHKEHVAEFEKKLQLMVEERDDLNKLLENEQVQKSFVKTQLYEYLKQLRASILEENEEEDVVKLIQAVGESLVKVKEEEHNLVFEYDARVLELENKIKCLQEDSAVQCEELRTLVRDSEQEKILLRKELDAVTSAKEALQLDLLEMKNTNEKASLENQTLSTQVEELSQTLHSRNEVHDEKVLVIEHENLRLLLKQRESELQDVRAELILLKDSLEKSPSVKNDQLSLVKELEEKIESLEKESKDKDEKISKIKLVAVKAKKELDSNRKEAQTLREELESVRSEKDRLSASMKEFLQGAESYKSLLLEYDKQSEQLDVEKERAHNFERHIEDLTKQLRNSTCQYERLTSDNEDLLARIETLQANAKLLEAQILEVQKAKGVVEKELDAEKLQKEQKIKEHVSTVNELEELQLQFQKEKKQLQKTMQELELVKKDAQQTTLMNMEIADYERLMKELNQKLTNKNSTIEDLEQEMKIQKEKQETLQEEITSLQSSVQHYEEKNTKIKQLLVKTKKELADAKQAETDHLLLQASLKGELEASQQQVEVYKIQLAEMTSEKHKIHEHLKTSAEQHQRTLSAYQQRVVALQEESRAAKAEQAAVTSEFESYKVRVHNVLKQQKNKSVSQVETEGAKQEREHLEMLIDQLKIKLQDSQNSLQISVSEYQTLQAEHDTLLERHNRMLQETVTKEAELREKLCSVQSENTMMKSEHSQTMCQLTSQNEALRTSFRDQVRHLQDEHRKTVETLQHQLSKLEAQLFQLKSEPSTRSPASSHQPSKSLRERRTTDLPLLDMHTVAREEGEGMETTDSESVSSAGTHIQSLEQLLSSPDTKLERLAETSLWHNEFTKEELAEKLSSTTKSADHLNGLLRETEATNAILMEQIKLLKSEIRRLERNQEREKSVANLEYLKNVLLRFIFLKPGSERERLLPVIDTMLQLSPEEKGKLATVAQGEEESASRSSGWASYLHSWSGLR

The target in assay [2] is T2, γ2-COP-ultraID (γ2-COP subunit of coatomer with ultraID fused to its C-terminus) (UniProt Q9QXK3).
T2 sequence: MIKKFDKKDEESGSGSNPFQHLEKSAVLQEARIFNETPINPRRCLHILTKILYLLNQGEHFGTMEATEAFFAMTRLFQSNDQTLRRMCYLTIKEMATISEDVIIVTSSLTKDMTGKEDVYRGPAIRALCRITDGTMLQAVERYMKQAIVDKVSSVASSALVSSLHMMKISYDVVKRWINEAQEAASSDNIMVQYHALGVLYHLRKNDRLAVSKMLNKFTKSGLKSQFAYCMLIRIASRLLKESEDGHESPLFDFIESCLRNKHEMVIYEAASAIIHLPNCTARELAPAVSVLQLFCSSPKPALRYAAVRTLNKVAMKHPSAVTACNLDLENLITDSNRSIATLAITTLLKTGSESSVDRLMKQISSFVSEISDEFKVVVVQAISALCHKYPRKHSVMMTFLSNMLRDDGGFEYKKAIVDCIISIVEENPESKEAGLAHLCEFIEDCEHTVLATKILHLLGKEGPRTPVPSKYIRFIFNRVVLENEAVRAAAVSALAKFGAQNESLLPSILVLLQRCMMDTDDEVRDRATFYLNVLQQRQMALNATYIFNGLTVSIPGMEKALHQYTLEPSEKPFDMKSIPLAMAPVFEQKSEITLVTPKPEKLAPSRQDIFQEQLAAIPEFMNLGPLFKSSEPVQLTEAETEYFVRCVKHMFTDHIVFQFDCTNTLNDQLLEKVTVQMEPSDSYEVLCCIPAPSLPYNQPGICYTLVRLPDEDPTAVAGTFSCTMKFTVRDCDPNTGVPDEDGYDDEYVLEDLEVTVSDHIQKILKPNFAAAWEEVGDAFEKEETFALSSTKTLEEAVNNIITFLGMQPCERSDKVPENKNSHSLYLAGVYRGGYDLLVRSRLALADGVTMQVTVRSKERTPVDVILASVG

The target in another assay is BioID-Ago2 (UniProt Q9UKV8).
Assay [3] deals with ultraID-Ago2 (ultraID fused to the N-terminus of Argonaute-2) (UniProt Q9UKV8).

No constants are given. Whether binding was seen depends on the method and setting. Binding seen in cells or lysates may run through a third protein. A yes stands for co-enrichment or nearness to the bait. Other partners may have been found. For part of these data: Where a sequence is shown, tags or fusion partners need not be part of it.

As to giantin (mouse (endogenous in P19)), the binding result in assay [1] and in assay [2] was “binds” throughout.
CNOT1 (from UniProt A5YKK6 1-2376): the binding result (with BioID-Ago2; in assay [3]) was “binds” each time.
Dicer (from UniProt Q9UPY3 1-1922): the binding entry (in the assay with BioID-Ago2; in assay [3]) was “binds” each time.
In the case of XRN1 (from UniProt Q8IZH2 1-1706), the binding entry (with BioID-Ago2; in assay [3]) was “binds” each time.
On to golgin-245 (from UniProt Q91VW5 1-2238), for which the binding result in assay [1] and in assay [2] was “binds” in each case.
As to GCC185 (from UniProt Q8CHG3 1-1680), the binding entry in assay [1] and in assay [2] was “binds” throughout.
Consider SLY-homolog (from UniProt Q8BRF7 1-639), for which the binding entry in assay [1] and in assay [2] was “binds” throughout.
On to ATP7A (from UniProt Q64430 1-1491), for which the binding result in assay [1] is recorded as “binds”.

These data come from doi:10.1101/2021.06.16.448656.
